PubChem BioAssay AID1259297 – Sanger Institute, 2017

Screen: 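Kinase knock-downs that lower colorectal cancer cell viability or act with drugs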 (primary screen)
Cells: human RCM1 colorectal cancer cell line
Knock-down reagent: siRNA pool against human genes
Conditions: separate arms: DMSO vehicle, or one anchor drug at a mild dose: BYL719 1 µM, cetuximab 5 µg/ml, trametinib 10 nM
Measured: 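Replicate-mean well viability as a share of non-targeting pool control, a robust z-score without drug, and synergy scores for BYL719, cetuximab and trametinib arms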
Direction: viability z-score, knock-down alone: higher = more viable cells than non-targeting controls; viability, knock-down alone (DMSO): higher = more viable cells; synergy score with trametinib: higher = stronger combined killing with trametinib; synergy score with BYL719: higher = stronger combined killing with BYL719
Hit rule: 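Essential when the viability robust z-score for knock-down alone is below -3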
Calls: active = essential when knocked down alone; inactive = no clear loss of viability alone
Shown is an unselected part of 794 deposited reagents. Over the whole deposit, 13 (1.6%) were called active. 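Calls reflect knock-down without drug only; drug synergy is judged separately, with scores above 0.15 counted as synergy.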 A number with no mark means an inactive call. Viability is capped at 1. Further read-outs or replicates are left out here. Not stated in the record: the amount of reagent, the time to read-out.

target | viability z-score, knock-down alone | viability, knock-down alone (DMSO) (fraction of control) | synergy score with trametinib | synergy score with BYL719
MAP3K19 (mitogen-activated protein kinase kinase kinase 19) | -2.2 | 0.712 | -0.161 | -0.0708
ETNK1 (ethanolamine kinase 1) | 0.9 | 1 | 0.059 | -0.0728
EEF2K (eukaryotic elongation factor 2 kinase) | -0.39 | 0.88 | -0.0509 | 0.0255
XYLB (xylulokinase) | 0.44 | 0.957 | -0.109 | -0.0637
DLG4 (discs large MAGUK scaffold protein 4) | 0.561 | 0.969 | 0.16 | -0.0156
ALDH18A1 (aldehyde dehydrogenase 18 family member A1) | -0.222 | 0.896 | -0.0267 | -0.124
DGKQ (diacylglycerol kinase theta) | 0.489 | 0.962 | 0.0581 | 0.0301
MARK3 (microtubule affinity regulating kinase 3) | -1.57 | 0.77 | 0.127 | -0.052
GOLGA5 (golgin A5) | 0.797 | 0.99 | 0.0156 | -0.0371
BMX (BMX non-receptor tyrosine kinase) | 0.439 | 0.957 | 0.116 | -0.0412
ADGRL2 (adhesion G protein-coupled receptor L2) | 0.419 | 0.955 | 0.0253 | -0.103
CSNK1D (casein kinase 1 delta) | 0.111 | 0.927 | 0.00664 | -0.112
MAPK12 (mitogen-activated protein kinase 12) | 0.9 | 1 | -0.0817 | 0
PDK1 (pyruvate dehydrogenase kinase 1) | -0.346 | 0.884 | 0.0765 | -0.0709
NPR2 (natriuretic peptide receptor 2) | 0.088 | 0.925 | 0.0955 | -0.0787
PLK1 (polo like kinase 1) | -3.85 (active) | 0.559 | -0.0263 | -0.0685
BLK (BLK proto-oncogene, Src family tyrosine kinase) | 0.9 | 1 | -0.0259 | -0.0728
EFNA5 (ephrin A5) | 0.671 | 0.979 | -0.037 | -0.00779
EFNA3 (ephrin A3) | 0.9 | 1 | -0.034 | -0.000229
PI4K2B (phosphatidylinositol 4-kinase type 2 beta) | -1.88 | 0.742 | 0.0259 | 0.0447

Ordered by “synergy score with trametinib” (low to high): some entries from above.
target | viability z-score, knock-down alone | viability, knock-down alone (DMSO) (fraction of control) | synergy score with trametinib | synergy score with BYL719
GOLGA5 (golgin A5) | 0.797 | 0.99 | 0.0156 | -0.0371
BMX (BMX non-receptor tyrosine kinase) | 0.439 | 0.957 | 0.116 | -0.0412
